# Literature values in US11304932B2, “Diaryl and arylheteroaryl urea derivatives as modulators of the 5-HT2A serotonin receptor useful for the prophylaxis and treatment of hallucinations associated with a neurodegenerative disease” (Axovant Sciences GmbH, priority 2015, dated 2022).
# At least one compound was matched to its structure with a doubt left.
# Details: clozapine at low dose
smiles,measurement,value
CN1CCN(C2=Nc3cc(Cl)ccc3Nc3ccccc32)CC1 [clozapine],efficacy in psychotic symptoms associated with Parkinson's Disease,demonstrate efficacy
